This is one part of the list. The data scatter; read single values as rough.
compound: ClCC(=O)N[C@H]1CCCc2ccccc12; experiment: log2 mean competition ratio of IA-DTB cysteine labelling (DMSO/compound) (log2 ratio); higher = stronger cysteine engagement by compound; conditions: 50 µM; treatment time: 4 h; cell line lysate: HEK293T
Protocol: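 IA-DTB competitive cysteine chemoproteomics in HEK293T RIPA lysate. Lysates were treated with compound 29 or 30 at 50 or 200 µM for 4 h, then IA-DTB (500 µM, 1 h), trypsin-digested, NeutrAvidin-enriched and analysed by diaPASEF. Competition ratio = intensity DMSO / intensity compound (n=4 treated, n=64 DMSO); binding: mean log2 CR ≥ 1 and p ≤ 0.05 plus QC filters. Target is the cysteine site.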

Amino acid sequences for entries named in this document (tags omitted). A change or cut given only in a name is not applied to a line headed by its entry. Residues count along the entry.
UniProt Q8IVS2: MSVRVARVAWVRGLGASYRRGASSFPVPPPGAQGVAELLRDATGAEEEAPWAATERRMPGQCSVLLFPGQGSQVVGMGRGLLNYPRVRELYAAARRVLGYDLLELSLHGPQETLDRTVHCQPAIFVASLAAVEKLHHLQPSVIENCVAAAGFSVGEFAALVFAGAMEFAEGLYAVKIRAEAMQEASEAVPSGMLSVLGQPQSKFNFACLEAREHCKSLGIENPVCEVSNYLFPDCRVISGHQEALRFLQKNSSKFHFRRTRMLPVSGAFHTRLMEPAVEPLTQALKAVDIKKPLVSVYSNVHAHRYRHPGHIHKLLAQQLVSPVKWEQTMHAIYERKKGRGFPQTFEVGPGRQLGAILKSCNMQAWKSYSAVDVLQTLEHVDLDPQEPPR
UniProt Q9Y2Z2: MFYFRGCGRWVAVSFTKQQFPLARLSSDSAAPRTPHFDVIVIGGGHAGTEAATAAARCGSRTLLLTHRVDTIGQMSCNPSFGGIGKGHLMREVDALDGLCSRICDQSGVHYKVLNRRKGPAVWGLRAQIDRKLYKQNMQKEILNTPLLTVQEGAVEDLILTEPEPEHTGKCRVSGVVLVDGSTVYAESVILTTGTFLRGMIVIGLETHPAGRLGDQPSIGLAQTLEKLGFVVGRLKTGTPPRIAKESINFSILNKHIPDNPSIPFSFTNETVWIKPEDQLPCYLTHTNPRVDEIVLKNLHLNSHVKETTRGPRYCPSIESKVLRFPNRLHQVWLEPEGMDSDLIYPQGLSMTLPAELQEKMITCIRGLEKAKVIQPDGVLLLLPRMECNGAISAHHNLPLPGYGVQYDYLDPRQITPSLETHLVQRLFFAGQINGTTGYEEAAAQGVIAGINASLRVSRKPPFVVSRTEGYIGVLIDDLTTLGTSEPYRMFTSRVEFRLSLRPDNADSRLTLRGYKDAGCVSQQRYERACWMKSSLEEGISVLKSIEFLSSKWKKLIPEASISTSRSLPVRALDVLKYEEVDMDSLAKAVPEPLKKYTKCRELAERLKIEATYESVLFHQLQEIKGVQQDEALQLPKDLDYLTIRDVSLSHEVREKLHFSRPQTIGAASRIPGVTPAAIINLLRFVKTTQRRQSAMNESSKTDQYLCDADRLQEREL
UniProt O94832: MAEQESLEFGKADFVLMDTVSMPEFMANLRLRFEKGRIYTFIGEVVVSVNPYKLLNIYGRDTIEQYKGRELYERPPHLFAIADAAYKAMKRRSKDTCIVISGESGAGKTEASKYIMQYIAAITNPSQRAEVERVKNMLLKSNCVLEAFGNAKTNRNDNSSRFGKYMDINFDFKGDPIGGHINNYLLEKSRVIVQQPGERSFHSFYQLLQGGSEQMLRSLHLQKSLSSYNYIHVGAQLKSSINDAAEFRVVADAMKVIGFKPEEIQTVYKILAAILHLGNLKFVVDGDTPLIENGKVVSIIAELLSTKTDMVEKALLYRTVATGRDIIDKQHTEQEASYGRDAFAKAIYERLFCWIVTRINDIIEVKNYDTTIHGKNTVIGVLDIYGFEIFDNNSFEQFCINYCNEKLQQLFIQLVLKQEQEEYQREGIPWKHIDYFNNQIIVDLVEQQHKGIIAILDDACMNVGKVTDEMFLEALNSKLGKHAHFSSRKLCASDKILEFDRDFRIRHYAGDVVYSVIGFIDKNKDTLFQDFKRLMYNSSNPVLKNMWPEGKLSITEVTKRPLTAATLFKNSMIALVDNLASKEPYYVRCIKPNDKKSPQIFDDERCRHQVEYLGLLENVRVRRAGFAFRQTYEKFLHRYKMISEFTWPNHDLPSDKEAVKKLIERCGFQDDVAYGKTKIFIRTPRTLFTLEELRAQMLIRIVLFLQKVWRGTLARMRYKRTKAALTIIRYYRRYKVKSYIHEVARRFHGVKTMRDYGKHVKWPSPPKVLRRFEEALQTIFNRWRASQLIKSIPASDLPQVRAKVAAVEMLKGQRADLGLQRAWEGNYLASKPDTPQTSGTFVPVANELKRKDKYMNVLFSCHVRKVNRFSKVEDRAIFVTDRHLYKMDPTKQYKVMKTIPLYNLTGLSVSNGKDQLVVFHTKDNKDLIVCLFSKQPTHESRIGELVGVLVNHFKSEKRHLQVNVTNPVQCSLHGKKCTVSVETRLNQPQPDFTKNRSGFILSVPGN
UniProt Q9H115: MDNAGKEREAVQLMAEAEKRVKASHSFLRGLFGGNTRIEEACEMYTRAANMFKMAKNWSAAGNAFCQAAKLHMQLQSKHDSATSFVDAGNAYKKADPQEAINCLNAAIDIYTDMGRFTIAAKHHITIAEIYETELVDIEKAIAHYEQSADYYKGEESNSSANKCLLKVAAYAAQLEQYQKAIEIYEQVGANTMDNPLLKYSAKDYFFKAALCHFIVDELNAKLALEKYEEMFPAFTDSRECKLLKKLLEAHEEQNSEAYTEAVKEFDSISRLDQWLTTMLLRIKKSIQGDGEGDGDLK
UniProt Q13330: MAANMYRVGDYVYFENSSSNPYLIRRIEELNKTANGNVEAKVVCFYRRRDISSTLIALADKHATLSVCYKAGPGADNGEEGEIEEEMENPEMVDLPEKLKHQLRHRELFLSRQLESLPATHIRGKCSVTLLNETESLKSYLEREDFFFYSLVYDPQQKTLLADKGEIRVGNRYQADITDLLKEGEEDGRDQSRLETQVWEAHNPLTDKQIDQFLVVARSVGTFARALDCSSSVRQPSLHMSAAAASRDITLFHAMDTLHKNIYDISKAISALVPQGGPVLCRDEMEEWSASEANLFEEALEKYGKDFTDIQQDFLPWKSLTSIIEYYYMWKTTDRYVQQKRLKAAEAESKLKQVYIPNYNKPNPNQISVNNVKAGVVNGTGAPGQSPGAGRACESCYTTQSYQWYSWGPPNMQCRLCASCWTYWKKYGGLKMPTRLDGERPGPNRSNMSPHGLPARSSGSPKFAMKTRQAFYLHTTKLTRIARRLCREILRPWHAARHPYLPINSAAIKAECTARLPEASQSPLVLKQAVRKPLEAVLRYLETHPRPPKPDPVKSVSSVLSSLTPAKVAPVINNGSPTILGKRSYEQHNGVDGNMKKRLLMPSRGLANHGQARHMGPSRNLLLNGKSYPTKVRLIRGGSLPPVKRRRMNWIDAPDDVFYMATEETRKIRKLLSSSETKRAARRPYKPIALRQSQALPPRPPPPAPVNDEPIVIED
UniProt Q9BQG0: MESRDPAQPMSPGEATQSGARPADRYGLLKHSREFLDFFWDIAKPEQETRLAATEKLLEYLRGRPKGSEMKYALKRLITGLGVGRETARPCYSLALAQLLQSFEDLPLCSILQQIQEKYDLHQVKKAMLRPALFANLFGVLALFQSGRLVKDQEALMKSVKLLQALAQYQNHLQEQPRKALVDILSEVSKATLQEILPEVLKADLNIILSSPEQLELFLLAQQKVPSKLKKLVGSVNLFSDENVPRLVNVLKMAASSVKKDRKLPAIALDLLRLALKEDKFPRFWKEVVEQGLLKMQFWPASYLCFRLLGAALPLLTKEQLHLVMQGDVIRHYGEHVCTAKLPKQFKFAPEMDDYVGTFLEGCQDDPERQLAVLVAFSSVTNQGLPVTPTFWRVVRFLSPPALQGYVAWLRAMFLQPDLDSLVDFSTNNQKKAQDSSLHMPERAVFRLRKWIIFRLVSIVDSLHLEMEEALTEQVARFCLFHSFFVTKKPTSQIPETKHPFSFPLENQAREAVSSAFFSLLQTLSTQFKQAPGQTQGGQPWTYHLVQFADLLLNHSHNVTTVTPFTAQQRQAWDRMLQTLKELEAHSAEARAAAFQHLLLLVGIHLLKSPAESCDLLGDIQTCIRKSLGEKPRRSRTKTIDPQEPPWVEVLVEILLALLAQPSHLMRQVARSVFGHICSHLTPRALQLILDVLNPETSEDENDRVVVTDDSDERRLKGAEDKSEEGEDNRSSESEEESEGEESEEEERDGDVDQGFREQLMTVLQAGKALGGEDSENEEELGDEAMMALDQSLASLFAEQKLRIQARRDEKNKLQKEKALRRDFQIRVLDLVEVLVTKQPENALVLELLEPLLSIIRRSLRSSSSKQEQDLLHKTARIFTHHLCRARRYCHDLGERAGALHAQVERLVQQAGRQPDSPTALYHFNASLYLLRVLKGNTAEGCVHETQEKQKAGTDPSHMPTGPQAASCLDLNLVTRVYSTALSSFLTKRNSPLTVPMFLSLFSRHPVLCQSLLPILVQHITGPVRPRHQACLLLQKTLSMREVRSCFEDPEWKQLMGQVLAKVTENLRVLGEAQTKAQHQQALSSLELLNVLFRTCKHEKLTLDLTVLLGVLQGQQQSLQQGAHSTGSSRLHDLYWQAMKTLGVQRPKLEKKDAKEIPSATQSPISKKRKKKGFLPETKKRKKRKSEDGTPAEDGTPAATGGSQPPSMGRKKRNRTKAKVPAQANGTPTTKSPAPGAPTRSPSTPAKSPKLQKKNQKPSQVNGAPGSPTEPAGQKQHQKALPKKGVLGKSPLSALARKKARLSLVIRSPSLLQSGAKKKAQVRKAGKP
UniProt P53602, 2-22: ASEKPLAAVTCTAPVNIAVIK
UniProt Q765P7, 610-632: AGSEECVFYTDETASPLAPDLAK
UniProt Q9UGC7: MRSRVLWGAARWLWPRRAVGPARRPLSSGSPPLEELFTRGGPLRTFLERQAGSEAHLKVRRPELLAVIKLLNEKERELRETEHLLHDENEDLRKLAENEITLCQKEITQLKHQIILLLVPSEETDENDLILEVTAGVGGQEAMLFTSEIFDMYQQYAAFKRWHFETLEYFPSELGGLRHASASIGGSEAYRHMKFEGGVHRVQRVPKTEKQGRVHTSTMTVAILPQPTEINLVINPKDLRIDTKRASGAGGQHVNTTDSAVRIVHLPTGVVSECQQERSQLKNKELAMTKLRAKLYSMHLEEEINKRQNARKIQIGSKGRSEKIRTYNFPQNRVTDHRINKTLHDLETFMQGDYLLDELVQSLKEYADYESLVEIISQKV
UniProt Q6N069: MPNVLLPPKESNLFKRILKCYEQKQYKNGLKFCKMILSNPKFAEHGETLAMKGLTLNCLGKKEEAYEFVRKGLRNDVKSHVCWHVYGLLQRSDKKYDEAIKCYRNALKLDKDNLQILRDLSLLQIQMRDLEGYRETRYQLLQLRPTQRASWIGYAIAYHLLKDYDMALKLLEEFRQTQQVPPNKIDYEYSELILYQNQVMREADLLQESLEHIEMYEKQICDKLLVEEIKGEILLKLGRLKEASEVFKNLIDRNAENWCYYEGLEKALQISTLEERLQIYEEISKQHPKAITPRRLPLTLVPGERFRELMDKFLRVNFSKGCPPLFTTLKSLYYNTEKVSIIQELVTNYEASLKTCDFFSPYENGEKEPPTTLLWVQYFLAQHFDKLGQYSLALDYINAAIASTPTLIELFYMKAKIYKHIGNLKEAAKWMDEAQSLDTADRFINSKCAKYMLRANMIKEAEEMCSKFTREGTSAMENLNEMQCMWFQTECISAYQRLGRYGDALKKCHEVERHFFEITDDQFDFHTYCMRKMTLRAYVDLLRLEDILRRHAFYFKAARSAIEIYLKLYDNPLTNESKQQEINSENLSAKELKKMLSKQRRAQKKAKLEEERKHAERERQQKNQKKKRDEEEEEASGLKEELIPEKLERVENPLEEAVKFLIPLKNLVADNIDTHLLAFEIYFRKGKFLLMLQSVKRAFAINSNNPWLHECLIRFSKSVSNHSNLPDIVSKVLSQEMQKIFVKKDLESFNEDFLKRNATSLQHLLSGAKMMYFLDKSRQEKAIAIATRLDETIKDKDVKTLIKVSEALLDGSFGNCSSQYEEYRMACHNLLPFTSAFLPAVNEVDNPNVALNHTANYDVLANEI
UniProt Q13496: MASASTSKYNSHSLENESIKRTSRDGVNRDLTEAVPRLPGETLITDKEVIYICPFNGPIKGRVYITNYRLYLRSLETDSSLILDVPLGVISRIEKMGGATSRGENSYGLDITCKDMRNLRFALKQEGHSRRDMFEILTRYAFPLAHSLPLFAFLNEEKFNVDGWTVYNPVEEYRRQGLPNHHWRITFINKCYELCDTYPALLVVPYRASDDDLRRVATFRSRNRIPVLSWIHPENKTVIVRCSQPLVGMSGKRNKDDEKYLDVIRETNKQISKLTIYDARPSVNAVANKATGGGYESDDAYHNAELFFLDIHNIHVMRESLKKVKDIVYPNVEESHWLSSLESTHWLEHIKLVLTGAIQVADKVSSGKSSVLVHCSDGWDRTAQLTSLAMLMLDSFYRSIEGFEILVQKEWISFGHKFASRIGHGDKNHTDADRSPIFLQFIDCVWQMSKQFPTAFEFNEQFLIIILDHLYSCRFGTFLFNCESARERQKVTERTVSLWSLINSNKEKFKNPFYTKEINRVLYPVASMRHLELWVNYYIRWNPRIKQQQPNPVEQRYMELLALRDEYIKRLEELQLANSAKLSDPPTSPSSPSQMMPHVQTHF
UniProt Q7Z406, 107-126: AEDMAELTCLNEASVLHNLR
UniProt Q9ULH7, 620-640: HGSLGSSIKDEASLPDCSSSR

| Target | log2 mean competition ratio |
| --- | --- |
| MTHFD1L C814 | -0.493 |
| MT-ND3 C39 (UniProt Q8IVS2) | 0.359 |
| MTO1 C100 (UniProt Q9Y2Z2) | 0.00885 |
| MYO1D C977 (UniProt O94832) | 0.147 |
| MRPS18A C186 (UniProt Q9NVS2) | 0.458 |
| NAPB C42 (UniProt Q9H115) | 0.0671 |
| NAPRT C101 (UniProt Q6XQN6) | -0.512 |
| MRPS7 C191 (UniProt Q9Y2R9) | -0.116 |
| MTA1 C281 (UniProt Q13330) | -0.0902 |
| MYL6 C2 | 0.173 |
| MYBBP1A C890 (UniProt Q9BQG0) | -0.125 |
| MSH6 C765 (UniProt P52701) | -0.0929 |
| NADK2 C58 (UniProt Q4G0N4) | 0.182 |
| MYO18A C811 (UniProt Q92614) | -0.594 |
| MYBBP1A_(C614,C614,C623,C623) (UniProt Q9BQG0) | -0.0284 |
| MYBBP1A C338 (UniProt Q9BQG0) | 0.363 |
| MVD C12 (UniProt P53602) | -0.227 |
| MTMR4 C698 (UniProt Q9NYA4) | -0.129 |
| MTSS2 C615 (UniProt Q765P7) | 0.311 |

| Target | log2 mean competition ratio |
| --- | --- |
| MTRF1L C274 (UniProt Q9UGC7) | -0.128 |
| MSH2 C404 (UniProt P43246) | 0.177 |
| MSL1 C221 (UniProt Q68DK7) | 2.41 |
| MSH3 C803 (UniProt P20585) | 0.797 |
| MTO1 C104 (UniProt Q9Y2Z2) | 0.0121 |
| MTA1 C68 (UniProt Q13330) | 0.65 |
| MYSM1 C169 (UniProt Q5VVJ2) | -0.0816 |
| NAA16 C259 (UniProt Q6N069) | 0.598 |
| MRPS5 C324 (UniProt P82675) | 0.547 |
| N4BP2L2 C354 | 0.432 |
| MTM1 C242 (UniProt Q13496) | -0.256 |
| MYH14 C115 (UniProt Q7Z406) | -0.379 |
| MTMR1 C12 (UniProt Q13613) | 0.552 |
| MRPS18C C100 (UniProt Q9Y3D5) | 0.309 |
| MRTFB C636 (UniProt Q9ULH7) | -0.102 |
| MTIF2 C290 (UniProt P46199) | -0.251 |
| MYH10 C1238 (UniProt P35580) | -0.614 |
| MYO1D C143 (UniProt O94832) | 0.0739 |
| MYCBP2 C4638 (UniProt O75592) | 0.258 |

same assay, conditions: 200 µM; treatment time: 4 h; cell line lysate: HEK293T

| Target | log2 mean competition ratio |
| --- | --- |
| MTHFD1L C814 | 0.0586 |
| MT-ND3 C39 (UniProt Q8IVS2) | -0.205 |
| MTO1 C100 (UniProt Q9Y2Z2) | 0.16 |
| MYO1D C977 (UniProt O94832) | 0.167 |
| MRPS18A C186 (UniProt Q9NVS2) | 0.303 |
| NAPB C42 (UniProt Q9H115) | 0.291 |
| NAPRT C101 (UniProt Q6XQN6) | -0.392 |
| MRPS7 C191 (UniProt Q9Y2R9) | -0.0278 |
| MTA1 C281 (UniProt Q13330) | 0.115 |
| MYL6 C2 | 0.131 |
| MYBBP1A C890 (UniProt Q9BQG0) | -0.024 |
| MSH6 C765 (UniProt P52701) | 0.113 |
| NADK2 C58 (UniProt Q4G0N4) | 0.105 |
| MYO18A C811 (UniProt Q92614) | -0.0238 |
| MYBBP1A_(C614,C614,C623,C623) (UniProt Q9BQG0) | -0.0493 |
| MYBBP1A C338 (UniProt Q9BQG0) | -0.213 |
| MVD C12 (UniProt P53602) | -0.687 |
| MTMR4 C698 (UniProt Q9NYA4) | 0.0365 |
| MTSS2 C615 (UniProt Q765P7) | -0.163 |

| Target | log2 mean competition ratio |
| --- | --- |
| MTRF1L C274 (UniProt Q9UGC7) | 0.12 |
| MSH2 C404 (UniProt P43246) | 0.277 |
| MSL1 C221 (UniProt Q68DK7) | 0.0917 |
| MSH3 C803 (UniProt P20585) | -0.395 |
| MTO1 C104 (UniProt Q9Y2Z2) | 0.1 |
| MTA1 C68 (UniProt Q13330) | -0.229 |
| MYSM1 C169 (UniProt Q5VVJ2) | 0.00836 |
| NAA16 C259 (UniProt Q6N069) | -0.0437 |
| MRPS5 C324 (UniProt P82675) | 0.045 |
| N4BP2L2 C354 | 0.289 |
| MTM1 C242 (UniProt Q13496) | -0.0142 |
| MYH14 C115 (UniProt Q7Z406) | -0.476 |
| MTMR1 C12 (UniProt Q13613) | -0.271 |
| MRPS18C C100 (UniProt Q9Y3D5) | 0.0205 |
| MRTFB C636 (UniProt Q9ULH7) | 0.0355 |
| MTIF2 C290 (UniProt P46199) | 0.181 |
| MYH10 C1238 (UniProt P35580) | -0.179 |
| MYO1D C143 (UniProt O94832) | 0.0861 |
| MYCBP2 C4638 (UniProt O75592) | -0.283 |

— the supplement of paper PMC11732987, “Enantioselective OTUD7B fragment discovery through chemoproteomics screening and high-throughput optimisation” (Communications Chemistry, 2025)
